Data reported in paper PMC5179943.
These are yes or no findings as the source states them, for the method shown.

Chains of the proteins cited; added tags and fusions are not shown. Residues count along the entry.
UniProt P02769, residues 25-607: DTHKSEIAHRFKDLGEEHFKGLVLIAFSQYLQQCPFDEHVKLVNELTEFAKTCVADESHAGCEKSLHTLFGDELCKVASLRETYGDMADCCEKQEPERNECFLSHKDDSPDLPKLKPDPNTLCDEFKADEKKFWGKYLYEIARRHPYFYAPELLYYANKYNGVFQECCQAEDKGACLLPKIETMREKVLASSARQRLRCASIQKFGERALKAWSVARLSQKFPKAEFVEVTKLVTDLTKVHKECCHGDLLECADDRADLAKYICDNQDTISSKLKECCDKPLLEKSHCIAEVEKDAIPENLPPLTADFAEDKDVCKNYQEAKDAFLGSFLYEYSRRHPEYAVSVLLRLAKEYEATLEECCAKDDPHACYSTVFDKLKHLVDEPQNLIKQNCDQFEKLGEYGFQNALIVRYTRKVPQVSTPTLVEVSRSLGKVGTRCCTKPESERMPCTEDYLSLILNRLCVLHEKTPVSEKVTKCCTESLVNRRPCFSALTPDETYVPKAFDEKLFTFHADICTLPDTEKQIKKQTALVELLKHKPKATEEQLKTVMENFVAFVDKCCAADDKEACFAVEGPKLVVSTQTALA
UniProt P10909, residues 23-449: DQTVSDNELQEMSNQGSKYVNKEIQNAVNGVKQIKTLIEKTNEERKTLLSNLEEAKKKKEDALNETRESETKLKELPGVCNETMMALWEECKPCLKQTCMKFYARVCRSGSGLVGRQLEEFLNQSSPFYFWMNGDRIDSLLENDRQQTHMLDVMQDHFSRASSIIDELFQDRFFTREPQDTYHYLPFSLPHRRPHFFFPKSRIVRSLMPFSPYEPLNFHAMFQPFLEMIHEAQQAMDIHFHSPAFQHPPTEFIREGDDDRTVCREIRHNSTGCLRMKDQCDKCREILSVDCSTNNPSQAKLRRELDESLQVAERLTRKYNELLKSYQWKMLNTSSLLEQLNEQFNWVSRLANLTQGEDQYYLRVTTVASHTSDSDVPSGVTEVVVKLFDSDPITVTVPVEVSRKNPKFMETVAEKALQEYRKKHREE

How the values were obtained:
[1] = biological target: bovine serum albumin (BSA) (bovine) (UniProt P02769); assay: ELISA; solid-phase binding; human PLXNA4 coated on MaxiSorp plates overnight in PBS, blocked in 4% BSA-PBS-T; increasing amounts of human CLU in 0.5% BSA-PBS-T, 10 min at 37 °C; detected with biotinylated anti-CLU antibody and streptavidin-HRP; average of three independent experiments; both …
[2] = biological target: ovalbumin (UniProt P01012); assay: as above

binding [1]: no binding
binding [2]: no binding
Substance: Mammalian-expressed, recombinant human CLU protein (from UniProt P10909 23-449) (ligand)
